Results are given in words; binding and its absence hold for the method and conditions named. Binding calls can cover weak binding; strength is not graded here.
Target: E. multilocularis PIM kinase EmPim (E. multilocularis)
Experiment: two-hybrid; Gal4-based Matchmaker system, S. cerevisiae Gold strain; EmPim in pGBKT7, EmCDC25 in pGADT7; growth on Leu-/Trp-/His- triple dropout (medium stringency) and Leu-/Trp-/Ade-/His- quadruple dropout (high stringency) plates, 30°C, 48-72 h; growth on quadruple dropout plates quantified as gray value

- binding: binds
Substance: E. multilocularis CDC25 phosphatase EmCDC25 (from UniProt A0A068XY79) (enzyme)

Reference: PMC9560627, “Targeting Echinococcus multilocularis PIM kinase for improving anti-parasitic chemotherapy” (PLoS Neglected Tropical Diseases, 2022)
